No constants are given. Whether binding was seen depends on the method and setting. In cells and extracts the contact can be indirect. Some binding calls cover weakened binding; strength is not graded here. Tags and fused reporters may be left off the sequences shown.

Amino acid sequences for entries named in this document (tags omitted).
UniProt Q99683: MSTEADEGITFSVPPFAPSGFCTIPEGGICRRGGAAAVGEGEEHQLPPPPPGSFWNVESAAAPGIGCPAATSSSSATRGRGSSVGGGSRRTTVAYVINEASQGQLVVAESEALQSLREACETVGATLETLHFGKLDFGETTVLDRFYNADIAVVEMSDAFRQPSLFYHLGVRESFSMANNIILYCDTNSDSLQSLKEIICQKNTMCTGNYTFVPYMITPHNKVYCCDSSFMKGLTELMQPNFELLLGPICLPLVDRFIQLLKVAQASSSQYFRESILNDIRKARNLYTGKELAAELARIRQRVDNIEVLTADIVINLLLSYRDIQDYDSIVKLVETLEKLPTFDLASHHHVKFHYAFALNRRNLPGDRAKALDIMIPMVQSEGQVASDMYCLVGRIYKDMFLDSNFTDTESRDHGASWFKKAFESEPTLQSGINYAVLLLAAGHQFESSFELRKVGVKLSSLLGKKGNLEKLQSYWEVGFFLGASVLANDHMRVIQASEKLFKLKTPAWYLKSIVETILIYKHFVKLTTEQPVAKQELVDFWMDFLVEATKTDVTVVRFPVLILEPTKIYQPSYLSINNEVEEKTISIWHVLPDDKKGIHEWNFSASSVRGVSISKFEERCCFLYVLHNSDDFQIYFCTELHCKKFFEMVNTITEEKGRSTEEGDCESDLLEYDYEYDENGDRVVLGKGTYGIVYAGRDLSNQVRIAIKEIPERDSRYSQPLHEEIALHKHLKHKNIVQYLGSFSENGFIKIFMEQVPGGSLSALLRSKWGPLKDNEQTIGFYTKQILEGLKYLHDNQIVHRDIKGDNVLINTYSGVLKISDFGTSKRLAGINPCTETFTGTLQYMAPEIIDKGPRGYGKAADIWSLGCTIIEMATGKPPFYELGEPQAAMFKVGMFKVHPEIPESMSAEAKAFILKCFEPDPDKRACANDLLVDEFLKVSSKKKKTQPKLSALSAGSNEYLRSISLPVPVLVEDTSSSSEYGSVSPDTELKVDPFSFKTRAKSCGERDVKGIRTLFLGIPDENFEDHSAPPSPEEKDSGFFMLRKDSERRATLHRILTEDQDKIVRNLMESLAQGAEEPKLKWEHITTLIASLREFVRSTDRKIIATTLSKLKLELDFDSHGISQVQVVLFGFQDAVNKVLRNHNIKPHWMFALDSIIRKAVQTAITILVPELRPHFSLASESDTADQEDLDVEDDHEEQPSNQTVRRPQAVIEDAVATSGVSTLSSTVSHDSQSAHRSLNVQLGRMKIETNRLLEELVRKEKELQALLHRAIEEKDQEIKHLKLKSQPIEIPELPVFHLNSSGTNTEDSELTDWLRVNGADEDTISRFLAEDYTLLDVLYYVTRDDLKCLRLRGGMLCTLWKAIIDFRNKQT

For one molecule, binding results are on record in publication PMC8160069.

The assay has as its target FLAG-tagged ASK1 (UniProt Q99683). Kind of assay: co-IP; FLAG-tagged ASK1 produced in HEK293T cells incubated with purified GSTM1 in the presence of EA and cela before immunoprecipitation; in vitro, performed in duplicate; only the binder purified.

B1: GSTM1 (enzyme, UniProt P10649 1-218)
chain: MPMILGYWNVRGLTHPIRMLLEYTDSSYDEKRYTMGDAPDFDRSQWLNEKFKLGLDFPNLPYLIDGSHKITQSNAILRYLARKHHLDGETEEERIRADIVENQVMDTRMQLIMLCYNPDFEKQKPEFLKTIPEKMKLYSEFLGKRPWFAGDKVTYVDFLAYDILDQYRMFEPKCLDAFPNLRDFLARFEGLKKISAYMKSSRYIATPIFSKMAHWSNK
B1: the binding entry is given as “binds”.
